The campaign covered roughly 2,400 compounds. About 20 (0.8%) were called active.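 How the source made its calls: active means AC50 no more than ten times the highest tested concentration, or full inhibition at every dose giving a flat fit (cut at about 30 µM in these data); inconclusive means flat fit with activity between 30% and 70%, or poor-quality invalid fit; inactive means AC50 more than ten times the top tested dose.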 Some of the results follow.
Assay: luciferase-based ADP detection interference – biochemical, luminescence, cell-free, homogeneous, artefact control for GSK-3a inhibitor project, dose response (AID 463205);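 further: kinase-free counter-screen against the ADP-Glo detection reagents only; potency is for inhibitors that reduce the luminescence signal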
Settings: Cell-free ADP-Glo detection reagents, 5 uM ADP

AC50, inactive:
CCOc1ccc(Nc2nc(NCc3ccco3)nc(N)c2[N+](=O)[O-])cc1 > 30 µM
Cc1ccc(N=Nc2c(O)ccc3n[nH]nc23)cc1 > 30 µM
CCOC(=O)c1cc(-c2ccc(F)cc2)n(CC(=O)NCc2ccccn2)c1C > 30 µM
COc1ccc(-c2cc(C(F)(F)F)nc(SCCC(=O)NCc3ccco3)n2)cc1 > 30 µM
CCCCOC(=O)c1ccc(N/C(=N\S(=O)(=O)c2ccccc2)c2ccccc2)cc1 > 30 µM
O=C(Nc1cccc(-c2cnc3ccccc3n2)c1)c1ccco1 > 30 µM
CCSC1(SCC)N=C(N)C2(C#N)C(c3ccc(F)cc3)C12C#N (stereo not drawn) > 30 µM
Cc1cc(C)c2[nH]c(O)c(N=Nc3ccc(C(=O)O)cc3)c2c1 > 30 µM
O=C(NCCN1CCN(Cc2ccccc2Cl)CC1)Nc1ccccc1 > 30 µM
CC1CCN(Cc2c(C(=O)N/N=C/c3ccc(C(F)(F)F)cc3)nnn2-c2nonc2N)CC1 > 30 µM
N#Cc1c(Nc2ccccc2)c(/C=N/NCCO)c[nH]c1=O > 30 µM
Clc1ccc(-c2nnc(SCc3nc(-c4ccccc4)no3)o2)cc1 > 30 µM
Fc1ccc(/C=N/Nc2ncnc3nc[nH]c23)cc1F > 30 µM
CCc1c(C)c(C#N)c2nc3ccccc3n2c1NCC1CCCO1 (stereo not drawn) > 30 µM
CCN1CCc2c(C#N)c(N3CCOCC3)nc(NCCO)c2C1 > 30 µM
O=C(c1ccccc1)c1cnc(Nc2ccccc2Cl)s1 > 30 µM
Brc1ccc(-c2nnc3ccc(Nc4ccccc4)nn23)cc1 > 30 µM
CCOC(=O)c1[nH]c2c(c1-c1ccccc1)C(=O)CC(c1ccc(OC)c(OC)c1)C2 (stereo not drawn) > 30 µM
C=CCN1C(=O)/C(=C\c2cccs2)C(C(=O)OC)=C1C > 30 µM
Cc1ccc2oc(=O)c3cnn(CC(=O)N4CCN(c5ccccc5)CC4)c3c2c1 > 30 µM
CC(C)(C)N1C(=O)c2ccc(C(=O)O)cc2C1=O > 30 µM
CNC(=O)c1ccc(NC(=O)C2CCN(c3ncnc4sc(C)c(C)c34)CC2)cc1 > 30 µM
Cc1sc2ncnc(NCc3ccco3)c2c1C > 30 µM
c1ccc(CN2CCN(CCCNc3ccc4nnc(-c5ccccc5)n4n3)CC2)cc1 > 30 µM
Cc1ccccc1Cn1c(-c2ccc(=O)[nH]c2)nc2ccccc21 > 30 µM
NC(=O)c1sc2nccc(Nc3ccccc3)c2c1N > 30 µM
O=C(NC(=S)Nc1cccc2cnccc12)c1ccccc1 > 30 µM
COc1ccccc1-c1noc(CSc2nc(C)cc(=O)[nH]2)n1 > 30 µM
CCC(=O)NC(=S)Nc1cccc(C(C)=O)c1 > 30 µM
Nc1nc(SCC(=O)Nc2ccc(Oc3ccccc3)cc2)n[nH]1 > 30 µM
COc1ccc(N=Nc2c(C)n[nH]c2C)cc1 > 30 µM
O=Cc1c(NCCc2cccc(F)c2)c2ccccc2[nH]c1=O > 30 µM
Cc1ccc(C2CC(=O)N3CN(Cc4ccco4)CSC3=C2C#N)cc1 (stereo not drawn) > 30 µM
COc1ccccc1Nc1nc(C)cc(C)n1 > 30 µM
Cc1oc2ccc(O)cc2c1C(=O)c1ccc(Br)cc1 > 30 µM
Cc1cccc(C(=O)Nc2nccs2)c1[N+](=O)[O-] > 30 µM
COc1ccc(Nc2nc(S(=O)(=O)c3ccc(C)cc3)c(Cl)s2)cc1 > 30 µM
Cc1c(/C=N/Nc2ccc([N+](=O)[O-])cn2)c2ccccc2n1Cc1ccccc1 > 30 µM
COc1cc(OC)cc(C2C(C#N)=C(N)Oc3n[nH]c(-c4cccnc4)c32)c1 (stereo not drawn) > 30 µM
Cc1ccc(C)c(-n2c3nc(=O)n(C)c(=O)c-3cc3ccccc32)c1 > 30 µM
O=C(c1ccco1)N(Cc1ccccc1)c1cccc([N+](=O)[O-])c1 > 30 µM
Cc1ccc2oc(=O)c3cnn(CC(=O)N4CCCCC4C)c3c2c1 (stereo not drawn) > 30 µM
N#CC1=C(N)C(C#N)(C#N)C(c2ccc[nH]2)C2CCCC=C12 (stereo not drawn) > 30 µM
NC(=O)CSc1nc(C2CC2)nc2sc3c(c12)CCCC3 > 30 µM
O=c1c(O[C@H]2O[C@@H](CO)[C@H](O)[C@@H](O)[C@@H]2O)c(-c2ccc(O)cc2)oc2cc(O)cc(O)c12 > 30 µM
CCOC(=O)c1ccc(N2C=C(C(=O)OC)C(c3ccc(OC)c(O)c3)C(C(=O)OC)=C2)cc1 > 30 µM
CCOC(=O)c1cc(C(=O)OCC)c2cc(Br)ccc2n1 > 30 µM
C=CCSc1ncnc2c1oc1nc3c(cc12)COC(C)(C)C3 > 30 µM
Cc1ccc(-c2cn3cccnc3n2)cc1NC(=O)c1ccc(Br)o1 > 30 µM
Cc1csc(NC(=O)C2CC(=O)N(c3ccc(C)c(C)c3)C2)n1 (stereo not drawn) > 30 µM
CC(C)NC(=O)/C(=C\c1cccc([N+](=O)[O-])c1)NC(=O)c1ccccc1 > 30 µM
COc1ccc(/C=N/NC(=O)c2nnn(-c3nonc3N)c2-c2cccs2)c(OC)c1 > 30 µM
CN1/C(=C\C=C2/SC(=S)NC2=O)C(C)(C)c2ccccc21 > 30 µM
Cc1cccc(NC(=O)CSCc2nc3c(nnn3Cc3ccc(F)cc3)c(=O)[nH]2)c1C > 30 µM
COc1ccc(C2CC(=O)Nc3n[nH]c(-c4ccccc4)c32)cc1OC (stereo not drawn) > 30 µM
Cc1cccc(NC(=O)COC(=O)c2ccccn2)c1 > 30 µM
COc1ccc2nc(NC(=O)CSc3nnc(-c4ccoc4C)n3C)sc2c1 > 30 µM
N#Cc1c(C#N)c(-c2ccccc2)n(-c2ccc(C(=O)O)cc2)c1N > 30 µM

Filtered by structure: the entries above with a cyano group
AC50, inactive:
CCSC1(SCC)N=C(N)C2(C#N)C(c3ccc(F)cc3)C12C#N (stereo not drawn) > 30 µM
N#Cc1c(Nc2ccccc2)c(/C=N/NCCO)c[nH]c1=O > 30 µM
CCc1c(C)c(C#N)c2nc3ccccc3n2c1NCC1CCCO1 (stereo not drawn) > 30 µM
CCN1CCc2c(C#N)c(N3CCOCC3)nc(NCCO)c2C1 > 30 µM
Cc1ccc(C2CC(=O)N3CN(Cc4ccco4)CSC3=C2C#N)cc1 (stereo not drawn) > 30 µM
COc1cc(OC)cc(C2C(C#N)=C(N)Oc3n[nH]c(-c4cccnc4)c32)c1 (stereo not drawn) > 30 µM
N#CC1=C(N)C(C#N)(C#N)C(c2ccc[nH]2)C2CCCC=C12 (stereo not drawn) > 30 µM
N#Cc1c(C#N)c(-c2ccccc2)n(-c2ccc(C(=O)O)cc2)c1N > 30 µM

Arranged by formula weight (ascending): some entries from above
AC50, inactive:
Cc1ccc(N=Nc2c(O)ccc3n[nH]nc23)cc1 > 30 µM
CCSC1(SCC)N=C(N)C2(C#N)C(c3ccc(F)cc3)C12C#N (stereo not drawn) > 30 µM
Cc1ccc(C2CC(=O)N3CN(Cc4ccco4)CSC3=C2C#N)cc1 (stereo not drawn) > 30 µM

From PubChem BioAssay AID463205 (Broad Institute, 2010)
